The values below come from article PMC10896376.

The target of the experiment is T1, human Fructosamine-3-kinase (HsFN3K) (human (endogenous in HepG2)) (UniProt Q9H479).
T1 sequence: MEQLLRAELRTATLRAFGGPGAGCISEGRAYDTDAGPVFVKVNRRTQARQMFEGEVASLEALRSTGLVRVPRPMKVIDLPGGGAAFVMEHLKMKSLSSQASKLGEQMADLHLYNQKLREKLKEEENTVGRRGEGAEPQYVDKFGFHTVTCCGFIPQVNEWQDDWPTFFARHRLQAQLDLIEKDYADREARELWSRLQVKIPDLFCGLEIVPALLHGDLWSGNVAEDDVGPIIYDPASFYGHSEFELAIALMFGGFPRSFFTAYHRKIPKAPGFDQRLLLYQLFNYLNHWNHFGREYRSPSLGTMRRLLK
Put plainly: co-IP; subcellular fractions of HepG2 cells (cytoplasm, nucleus, mitochondria) in RIPA buffer, 400 ug protein, IP with anti-FN3K antibody and protein A/G plus agarose beads, 16 h at 4°C; immunoblot.

These are yes or no findings as the source states them, for the method shown. In cells and extracts the contact can be indirect. Some results given as binding are weak or reduced against the parent protein; the word gives no strength.

B1: Pyruvate dehydrogenase B (PDHB) (enzyme, UniProt P11177 31-359)
chain: LQVTVRDAINQGMDEELERDEKVFLLGEEVAQYDGAYKVSRGLWKKYGDKRIIDTPISEMGFAGIAVGAAMAGLRPICEFMTFNFSMQAIDQVINSAAKTYYMSGGLQPVPIVFRGPNGASAGVAAQHSQCFAAWYGHCPGLKVVSPWNSEDAKGLIKSAIRDNNPVVVLENELMYGVPFEFPPEAQSKDFLIPIGKAKIERQGTHITVVSHSRPVGHCLEAAAVLSKEGVECEVINMRTIRPMDMETIEASVMKTNHLVTVEGGWPQFGVGAEICARIMEGPAFNFLDAPAVRVTGADVPMPYAKILEDNSIPQVKDIIFAIKKTLNI
For the molecule B1, the binding entry is recorded as “binds”.
